Patent publication US7723299B2, “Methods for treating rheumatoid arthritis using a CTLA-4 fusion protein” (ForHumanTech. Co., Ltd., priority 2005, dated 2010)
At least one structure is not confirmed: it was looked up by name or label, or the drawing left a doubt.

Test system: Jurkat T cells and primary human CD4^+ T cells
Assay: IL-2 secretion of T cells activated with anti-CD3 and anti-CD28 mAbs, ELISA
Type: cell-based
Conditions: 10 nM of CsA or FK506
Experimental: Primary human CD4^+ T cells were purified from buffy coats from healthy donors. PBMC were isolated by density gradient centrifugation using Histopaque (Sigma). The lymphocyte layer was collected and CD4^+ T cells were isolated by MACS column using CD4 microbeads (Miltenyi Biotec) (Busch R., et al., J. Immunol. Methods 286:97-109 (2004)).
One million Jurkat (E6.1) cells or primary human CD4^+ T cells were treated with Hph-1-ctCTLA-4 for 1 hour, then washed with PBS and incubated with 0.25 μg of anti-CD28 mAb (Pharmingen) for 20 min at 4° C. The anti-CD28 mAb bound cells were further activated in 0.05 μg of anti-CD3 mAb (Pharmingen) coated plates for 20 hours. Each cell was stained with anti-CD69-PE and anti-CD25-FITC antibodies (Pharmingen) and analyzed by FACS calibur (Becton Dickinson). The supernatant in each well was analyzed for the level of secreted IL-2 by ELISA (R&D system).
To examine whether the delivered Hph-1-ctCTLA-4 can inhibit T cell activation, Jurkat T cells or primary human CD4^+ T cells were treated with Hph-1-ctCTLA-4 and stimulated with anti-CD28 mAb and plate-bound anti-CD3 mAb. The levels of activation-induced surface proteins such as CD69 and CD25 were analyzed by FACS.

C=CC[C@@H]1/C=C(\C)C[C@H](C)C[C@H](OC)[C@H]2O[C@@](O)(C(=O)C(=O)N3CCCC[C@H]3C(=O)O[C@H](/C(C)=C/[C@@H]3CC[C@@H](O)[C@H](OC)C3)[C@H](C)[C@@H](O)CC1=O)[C@H](C)C[C@@H]2OC [FK506, reference compound]
IL-2 secretion: inhibited IL-2 secretion
